Assay results published in patent publication US20240248079A1, “IMPROVED UnaG FLUORESCENT PROTEIN FOR BiFC ASSAYS” (THE REGENTS OF THE UNIVERSITY OF CALIFORNIA, priority 2021, published 2024).
For some assays here: For at least one compound, name, drawing or mass did not settle the structure. Some entries share one result that the patent states for a list of compounds.

Experiments:
Assay type in all cases: cell-based
[1] = tested on: YAP1 and TEAD4 interaction; test: SURF reporter of YAP1 and TEAD4 interaction, incl. high throughput screening; conditions: 1 μM final concentration
[2] = tested on: MYCN protein in MYCN-amplified neuroblastoma cells (Kelly cells); test: MYCN protein levels by western blot
[3] = target: T1, PPI between MYCN and AURKA (Homo sapiens, UniProt O14965); test: SURF reporter of MYCN (1-137) and AURKA (122-403): verification, high throughput screening, time course; conditions: time course assay in living cells
T1 construct: expressed in transfected cells
T1 sequence (O14965 122-403): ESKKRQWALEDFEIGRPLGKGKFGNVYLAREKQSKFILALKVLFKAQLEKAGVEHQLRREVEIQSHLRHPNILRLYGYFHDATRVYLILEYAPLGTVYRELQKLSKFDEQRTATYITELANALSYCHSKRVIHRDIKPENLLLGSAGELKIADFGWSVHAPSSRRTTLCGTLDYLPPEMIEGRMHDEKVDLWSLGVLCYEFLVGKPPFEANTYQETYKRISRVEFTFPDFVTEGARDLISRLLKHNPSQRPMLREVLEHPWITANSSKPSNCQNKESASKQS

[4] = tested on: neuroblastoma cell lines (Kelly, CHP134, SKNAS); test: WST-1 cell proliferation assay; conditions: WST-1 assay

Cc1nc(Nc2ncc(C(=O)Nc3c(C)cccc3Cl)s2)cc(N2CCN(CCO)CC2)n1 [dasatinib]
increase of the interaction in high throughput screening [1]: increase the interaction

Nc1nc(F)nc2c1ncn2[C@@H]1O[C@H](CO)[C@@H](O)[C@@H]1O [fludarabine]
MYCN degradation (MYCN protein level) [2]: do not degrade MYCN

C#CCC(Cc1cnc2nc(N)nc(N)c2n1)c1ccc(C(=O)N[C@@H](CCC(=O)O)C(=O)O)cc1 (some centres unmarked) [pralatrexate]
OFF time of PPI inhibition (T1/2 off, half-to-maximum time) [3]: > 6 h

COc1cc(NS(C)(=O)=O)ccc1Nc1c2ccccc2nc2ccccc12 [amsacrine]
MYCN degradation (MYCN protein level) [2]: significant degradation of MYCN
anti-proliferation effect [4]: stronger effect on anti-proliferation than cabozantinib
